This note sets out measurements from patent EP0738513A1, “Method for using ergoline compounds to effect physiological and pathological functions at the 5-HT7 receptor” (ELI LILLY AND COMPANY, priority 1995, dated 1996).

For the series, the system named is 5-HT7 receptor in the dog coronary artery. As to the kind of experiment: antagonism of 5-HT-induced relaxation in endothelium-denuded canine coronary artery rings precontracted with PGF2α. The class given is cell-based, mongrel dogs. To be noted: rings precontracted with PGF2α (10µM). The method, then: Hearts were obtained from mongrel dogs anesthetized with sodium pentobarbital (30mg/kg, i.v.) and placed in oxygenated modified Krebs' solution of the following composition (millimolar): NaCl, 118; KCl, 4.6; CaCl2, 1.6; KH2PO4, 1.2; MgSO4 1.2, glucose, 10; NaHCO3 24.8 (pH 7.4). The left anterior descending and circumflex coronary arteries were dissected from the hearts, cleaned of fat and adhering tissue and cut into rings (approximately 2-3mm outer diameter and 4-5mm in length). The intimal surface of the rings was gently rubbed with a pair of forceps to remove the endothelium. […] Tissues were equilibrated for 1 hour under an initial optimal passive force of 4g determined previously from length-tension experiments. […] Isometric force was measured with Statham UC3 force transducers connected to a Beckman dynograph (R611). […]
Tissues prepared as described in Example 1 were precontracted with PGF2α (10µM) which produced a tonic contraction that remained at or above 92.8±2.1% (n=14) of the original maximum force throughout the experiment. […] In some experiments contraction was measured in tissues under basal tone upcn the cumulative addition of 5-HT. […]
All results are expressed as mean ± S.E. where "n" represents the number of rings examined. […] The relaxation data is expressed as percent relaxation of the contraction produced by PGF2α . […]

The structures appear in SMILES notation.

For `CC(O)C(C)OC(=O)C1CC2c3cccc4c3c(cn4C(C)C)CC2N(C)C1` (centres unmarked) [COMPOUND II], the “(slope) of the Schild regression” value turned out to be 0.92.

Take `CC(C)n1cc2c3c(cccc31)C1CC(C(=O)NC3CCCC3O)CN(C)C1C2` (centres unmarked) [COMPOUND IV]: the “(slope) of the Schild regression” value was 0.98.
